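Luminescence from an EWS-FLI1 target-promoter (NR0B1) reporter, set against a CMV-promoter reporter, two days after silencing single genes in TC32 Ewing sarcoma cells. Each siRNA was applied at 20 nM. A z-score of the log NR0B1-over-CMV signal, less the median of siRNAs with the same seed; more negative means a stronger specific loss of the NR0B1 reporter.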

This is part of the screen; most of the strongest results are not listed here. Sequences are the guide (antisense) strand, without overhang.

UUCGAUGUGAUAGUCCUUC against HAAO gave seed-corrected z-score -0.1851. ACAGAUAUUGAGACUCGGC against FOSB read seed-corrected z-score 0.4118. For UCACUCACCAUGUCAAACU against PSMC3IP the result was seed-corrected z-score 0.06921. For UCUUGUUGAAGAUCGUUAU against CYP4F12 the result was seed-corrected z-score 0.1349. Result for UUUGCGUUCAUCCUCAGUG against PIKFYVE was seed-corrected z-score 0.236.

AAAGGAAUUUAAUUGCUCG against API5 gave seed-corrected z-score 0.1576. For AAUCUGAUCUGUUACCACG against GPNMB the result was seed-corrected z-score 0.3565. UUCUGGAUGAUAACUGGGC against SNX19P3 gave seed-corrected z-score 1.036. For UUAAUGAUGCCUUAUGACC against CCDC75P1 the result was seed-corrected z-score 0.1096. Result for UUCCUGGUGAACUGACUGC against PDCL was seed-corrected z-score -0.2966.

With UAGGGUUUCUAGCUCCUCC against CALCOCO2 the assay gave seed-corrected z-score 0.3066. ACUUCUAUCAGGCAUCGGC against LRRC74B read seed-corrected z-score 0.0896. UUGUCUCUUAGGAACAGGG against UVRAG read seed-corrected z-score -0.4472. With AAGGUUUUCAACACCAUGU against LOC729506 the assay gave seed-corrected z-score 0.2688. For UUUGAUAUAUGGGUCAGAG against SYT4 the result was seed-corrected z-score -0.4565.

UGAACUGUCACAUCCACUG against CUTC gave seed-corrected z-score -0.5504. With UCAUUGAUUGCAGCCGUCC against IGF2R the assay gave seed-corrected z-score -0.2948. Result for AUAGCUCCUGUCACUGUGU against TMEM30C was seed-corrected z-score 0.3706. With UUCCAAUCUAUGAAGUACC against CDH12 the assay gave seed-corrected z-score -0.1928. AUCCUUUUCGUAUUUUUCC against HMGB1P1 gave seed-corrected z-score -0.02097.

With AAAGGAUCCACAAUAUUGG against HTR4 the assay gave seed-corrected z-score 0.6432. UUGGUACCAAUAGUGAACU against SSUH2 gave seed-corrected z-score 0.04278. For UUGUUAUACACUUGUAACC against CD59 the result was seed-corrected z-score 0.6087. UGCCUUCUCCGUGACCAUG against PLD4 read seed-corrected z-score -0.4026. Result for UUACGAGAACCAGACAUCC against KLHL5 was seed-corrected z-score 0.03994.

UUGUCGAUCUGGGUGUUGC against LGALS9 read seed-corrected z-score -0.4836. UCUGGAUUCGGUUGUGGUC against LINC01014 gave seed-corrected z-score -0.4211. UCUCUGAUAAGAUCUUGGG against PLEKHO2 read seed-corrected z-score -0.9164. UUGGAUUUGAAGUGAGUUG against WDR93 read seed-corrected z-score -0.006255. With UGACUUCUUAUCGUUCAGG against GABRB2 the assay gave seed-corrected z-score -0.1454.

With AUAGUACUCCGAAUAAGGC against MS4A7 the assay gave seed-corrected z-score -0.02564. UAGCAUAUCCUGUUCAUUC against CFAP53 gave seed-corrected z-score -0.4586. UCACUUAAUACUUCUUGAC against FANCB read seed-corrected z-score -0.1341. With UUCGCAUUUAGACAGAAAG against SERPINB12 the assay gave seed-corrected z-score 0.5681. Result for UCUGGUUCCGAUGCUCUUC against STK10 was seed-corrected z-score -0.02203.

For AGACCUAUUAUACCGAAGC against PUM2 the result was seed-corrected z-score -0.2098. Result for UGUUCUUCGGAUGAGAUGC against CCDC162P was seed-corrected z-score 0.6486. Result for UAAGCUAUCUUAAAGGGCA against F2RL2 was seed-corrected z-score 0.4422. With UUCUUAUAUUCUUUCGCUC against FAM161B the assay gave seed-corrected z-score -0.3188. Result for UAAAAGUCCCGUUUGUCUC against BHLHE22 was seed-corrected z-score 0.3717.

For UUUGAGUUGAGGUUCUUGU against HHIPL1 the result was seed-corrected z-score 0.6637. UAUACAAGAACAUUCCUCC against SLC39A14 gave seed-corrected z-score 1.165. For UGAUAUUAUAGUUAGCUAG against GKN1 the result was seed-corrected z-score 1.433. With UACUUUAUCUGCGGUUUUC against NFRKB the assay gave seed-corrected z-score -0.2694. Result for UGAGGUUUCAGGAUUUCCG against ZNF79 was seed-corrected z-score -0.401.

Result for UCAUUGACCCGCAAUCUUC against DLG1 was seed-corrected z-score -0.6909. With UCUGGUAGUACAUGCAGCU against TARM1 the assay gave seed-corrected z-score 0.2202. Result for UGAGCAGCUGUAGUAAGUG against ATXN1L was seed-corrected z-score 0.03091. AUACCAACUGGUGUAUUUC against FGF2 read seed-corrected z-score -0.4971. With UUUUCUUAAGGCUGCAUGA against FAM220A the assay gave seed-corrected z-score 0.003774.

AAGAGUAUAAAGCCUUUGC against LDAH read seed-corrected z-score 0.002555. With UUCGCGAUUAAGCAGGUGC against ACY3 the assay gave seed-corrected z-score -0.01016.

Repeated from the top, 4 entries:

* UUCGAUGUGAUAGUCCUUC against HAAO : seed-corrected z-score -0.1851
* ACAGAUAUUGAGACUCGGC against FOSB : seed-corrected z-score 0.4118
* UCACUCACCAUGUCAAACU against PSMC3IP : seed-corrected z-score 0.06921
* UCUUGUUGAAGAUCGUUAU against CYP4F12 : seed-corrected z-score 0.1349

From PubChem BioAssay record AID1159506 (NCATS, 2015).